Two substances from article PMC10070477 can be followed below.

Amino acid sequences for entries named in this document (tags omitted).
UniProt P09874: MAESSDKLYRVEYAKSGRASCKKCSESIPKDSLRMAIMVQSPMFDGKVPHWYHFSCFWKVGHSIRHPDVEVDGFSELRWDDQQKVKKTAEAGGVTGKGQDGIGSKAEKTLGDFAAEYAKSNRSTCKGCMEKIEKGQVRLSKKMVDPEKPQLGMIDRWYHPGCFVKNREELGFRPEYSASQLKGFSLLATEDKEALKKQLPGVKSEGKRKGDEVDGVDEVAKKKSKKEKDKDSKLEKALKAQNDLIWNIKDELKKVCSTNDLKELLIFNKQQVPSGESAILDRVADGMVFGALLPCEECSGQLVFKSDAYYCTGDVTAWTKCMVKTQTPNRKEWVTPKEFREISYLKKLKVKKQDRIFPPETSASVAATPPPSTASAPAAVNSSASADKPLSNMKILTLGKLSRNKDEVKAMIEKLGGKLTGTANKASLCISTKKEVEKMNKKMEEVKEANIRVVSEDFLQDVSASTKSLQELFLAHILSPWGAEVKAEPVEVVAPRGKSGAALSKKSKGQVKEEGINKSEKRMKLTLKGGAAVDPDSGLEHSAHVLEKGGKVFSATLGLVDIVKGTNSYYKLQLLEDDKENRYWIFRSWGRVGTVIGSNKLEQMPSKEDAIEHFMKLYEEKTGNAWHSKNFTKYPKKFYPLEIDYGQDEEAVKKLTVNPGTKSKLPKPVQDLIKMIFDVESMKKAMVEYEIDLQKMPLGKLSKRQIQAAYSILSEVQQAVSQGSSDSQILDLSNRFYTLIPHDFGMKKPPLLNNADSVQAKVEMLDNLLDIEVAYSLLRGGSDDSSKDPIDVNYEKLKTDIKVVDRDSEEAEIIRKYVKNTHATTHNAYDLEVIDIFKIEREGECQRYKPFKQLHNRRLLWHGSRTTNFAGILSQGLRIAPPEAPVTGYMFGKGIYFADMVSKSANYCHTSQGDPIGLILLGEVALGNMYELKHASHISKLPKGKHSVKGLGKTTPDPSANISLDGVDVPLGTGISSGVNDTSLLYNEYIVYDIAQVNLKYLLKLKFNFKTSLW
UniProt Q9BSK0: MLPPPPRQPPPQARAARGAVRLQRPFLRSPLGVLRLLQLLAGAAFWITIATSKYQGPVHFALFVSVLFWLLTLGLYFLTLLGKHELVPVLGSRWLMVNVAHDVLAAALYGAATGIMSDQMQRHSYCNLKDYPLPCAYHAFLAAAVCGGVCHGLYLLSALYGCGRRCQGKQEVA

One assay addresses PARP1-Flag (UniProt P09874). In words: co-IP; HeLa and HEK293T cells transfected with the indicated recombinants, 48 h; reciprocal IP; in Fig. 5f with or without MARVELD1-V5.
A further assay deals with MARVELD1 (UniProt Q9BSK0). In words: co-IP; IP with IgG or the indicated antibody after 8 mM HU (HeLa) or 4 mM HU (HEK293T) for 24 h, Western blot; interaction enhanced by HU. On the technique in general: Immunoblotting shows a protein as a band on a membrane.

These are yes or no findings as the source states them, for the method shown. Binding seen in cells or lysates may run through a third protein. Some results given as binding are weak or reduced against the parent protein; the word gives no strength.

Turning to MARVELD1-V5 (from UniProt Q9BSK0 1-173), the binding result with PARP1-Flag is given as “binds”. As for “Poly(ADP-ribose) polymerase 1 (PARP1) (from UniProt P09874 1-1014)”, the binding result in the assay with MARVELD1 was “binds”.
